Results are given in words; binding and its absence hold for the method and conditions named.
Molecular target: NANOG, Q9H9S0
Assay: SPR
Conditions: remark: other sources report otherwise

B1: focal adhesion kinase (FAK), Q05397 1-1052 (enzyme)
chain: MAAAYLDPNLNHTPNSSTKTHLGTGMERSPGAMERVLKVFHYFESNSEPTTWASIIRHGDATDVRGIIQKIVDSHKVKHVACYGFRLSHLRSEEVHWLHVDMGVSSVREKYELAHPPEEWKYELRIRYLPKGFLNQFTEDKPTLNFFYQQVKSDYMLEIADQVDQEIALKLGCLEIRRSYWEMRGNALEKKSNYEVLEKDVGLKRFFPKSLLDSVKAKTLRKLIQQTFRQFANLNREESILKFFEILSPVYRFDKECFKCALGSSWIISVELAIGPEEGISYLTDKGCNPTHLADFTQVQTIQYSNSEDKDRKGMLQLKIAGAPEPLTVTAPSLTIAENMADLIDGYCRLVNGTSQSFIIRPQKEGERALPSIPKLANSEKQGMRTHAVSVSETDDYAEIIDEEDTYTMPSTRDYEIQRERIELGRCIGEGQFGDVHQGIYMSPENPALAVAIKTCKNCTSDSVREKFLQEALTMRQFDHPHIVKLIGVITENPVWIIMELCTLGELRSFLQVRKYSLDLASLILYAYQLSTALAYLESKRFVHRDIAARNVLVSSNDCVKLGDFGLSRYMEDSTYYKASKGKLPIKWMAPESINFRRFTSASDVWMFGVCMWEILMHGVKPFQGVKNNDVIGRIENGERLPMPPNCPPTLYSLMTKCWAYDPSRRPRFTELKAQLSTILEEEKAQQEERMRMESRRQATVSWDSGGSDEAPPKPSRPGYPSPRSSEGFYPSPQHMVQTNHYQVSGYPGSHGITAMAGSIYPGQASLLDQTDSWNHRPQEIAMWQPNVEDSTVLDLRGIGQVLPTHLMEERLIRQQQEMEEDQRWLEKEERFLKPDVRLSRGSIDREDGSLQGPIGNQHIYQPVGKPDPAAPPKKPPRPGAPGHLGSLASLSSPADSYNEGVKLQPQEISPPPTANLDRSNDKVYENVTGLVKAVIEMSSKIQPAPPEEYVPMVKEVGLALRTLLATVDETIPLLPASTHREIEMAQKLLNSDLGELINKMKLAQQYVMTSLQQEYKKQMLTAAHALAVDAKNLLDVIDQARLKMLGQTRPH
B1 was tested, and the binding was “no binding”.

From paper doi:10.1101/2021.09.09.459689
